According to patent publication US20220242961A1:
These are yes or no findings as the source states them, for the method shown. Some binding calls cover weakened binding; strength is not graded here.

Sequences of proteins named here, by UniProt entry; tags and fusion partners are left off. A change or cut given only in a name is not applied to a line headed by its entry. Residues count along the entry.
UniProt Q07011: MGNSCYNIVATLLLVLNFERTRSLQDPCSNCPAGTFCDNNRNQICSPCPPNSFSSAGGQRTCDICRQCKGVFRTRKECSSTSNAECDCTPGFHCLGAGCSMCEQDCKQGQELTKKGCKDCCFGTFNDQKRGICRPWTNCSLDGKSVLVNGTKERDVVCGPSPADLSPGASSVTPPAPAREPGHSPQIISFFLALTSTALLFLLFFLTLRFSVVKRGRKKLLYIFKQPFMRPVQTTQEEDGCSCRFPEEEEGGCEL
UniProt P41273, residues 71-254: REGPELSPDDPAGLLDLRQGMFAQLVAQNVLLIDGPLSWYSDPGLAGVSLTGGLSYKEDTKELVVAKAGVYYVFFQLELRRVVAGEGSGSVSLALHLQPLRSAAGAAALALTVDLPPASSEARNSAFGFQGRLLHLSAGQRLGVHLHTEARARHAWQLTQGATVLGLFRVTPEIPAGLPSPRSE

Key:
[1] = molecular target: Recombinant Human 41BB-His tag protein (Sino Biological, 10041-H08H) (human) (UniProt Q07011); assay: Octet BLI, 41BB-His captured on Ni-NTA biosensor, analyte 100 nM, first association step
[2] = molecular target: Recombinant Human 41BB-His tag protein (Sino Biological, 10041-H08H) (human) (UniProt Q07011); assay: Octet, 41BB-His on Ni-NTA biosensor, sequential association at 100 nM
[3] = molecular target: Recombinant Human 41BB-His tag protein (Sino Biological, 10041-H08H) (human) (UniProt Q07011); assay: Octet BLI, 41BB-His captured on Ni-NTA biosensor and first loaded with 41B01; recombinant human 41BB-ligand 100 nM as second analyte
[4] = molecular target: Recombinant Human 41BB-His tag protein (Sino Biological, 10041-H08H) (human) (UniProt Q07011); assay: Octet BLI, 41BB-His captured on Ni-NTA biosensor, analyte 100 nM, two sequential association steps (self-binding control)

Measured: binding

Recombinant Human 41BB Ligand (from UniProt P41273 71-254)
binds: [1] | [2] | [3] | [4]
